According to the supplement of paper PMC8866396:
± gives the standard deviation of the averaged measurements. The list shows a part of the results. Repeats in this data set agree poorly, so a single value says little.

test system: IL-6-GFP PC-9GR; assay: IL-6-GFP fluorescence relative to DMSO control (fraction of control); higher = more IL-6-GFP expression; conditions: compound concentration: 10 uM; treatment time: 48 h
Procedure: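 IL-6-GFP-overexpressing PC-9 and PC-9GR EGFR-mutant lung cancer cells (3000 cells/well, 96-well) were treated for 48 h with each compound of the Selleck L2000 library at 10 uM. IL-6-GFP fluorescence was read on a high-content screening system, and viability by CCK-8 absorbance on a parallel plate set. Each value was normalised as compound well / DMSO control well; two independent replicates.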

Row | Compound | IL-6-GFP fluorescence
1 | C#Cc1cccc(Nc2ncnc3cc(OCCOC)c(OCCOC)cc23)c1 [Erlotinib] | 1.28 ± 0.22
2 | O=C(/C=C/C=C/c1ccc2c(c1)OCO2)N1CCCCC1 [Piperine] | 0.902 ± 0.29
3 | Cc1c(Cl)cccc1Nc1ccccc1C(=O)O [Tolfenamic Acid] | 0.602 ± 0.37
4 | Cl.N=C1CCCN1Cc1[nH]c(=O)[nH]c(=O)c1Cl.O=c1[nH]c(=O)n(C2CC(O)C(CO)O2)cc1C(F)(F)F.O=c1[nH]c(=O)n(C2CC(O)C(CO)O2)cc1C(F)(F)F (centres undefined) | 1.1 ± 0.17
5 | CN1C(=O)/C(=C2/C(=O)Nc3ccccc32)c2ccccc21 [Meisoindigo] | 0.742 ± 0.17
6 | Cc1ccc(-c2ncc(Cl)cc2-c2ccc(S(C)(=O)=O)cc2)cn1 [Etoricoxib] | 0.451 ± 0.35
7 | CC(=O)Nc1ccc(OC(=O)c2ccccc2OC(C)=O)cc1 [Benorylate] | 0.78 ± 0.021
8 | Cc1ccc(=O)n(-c2ccccc2)c1 [Pirfenidone] | 0.864 ± 0.082
9 | CC12CCC(CC1)C(C)(C)O2 [Eucalyptol] | 0.591 ± 0.57
10 | O=C(c1ccc(OCCN2CCCCC2)cc1)c1c(-c2ccc(O)cc2)sc2cc(O)ccc12 [Raloxifene] | 0.937 ± 0.16
11 | COc1cc2c3cc1Oc1c(OC)c(OC)cc4c1C(Cc1ccc(O)c(c1)Oc1ccc(cc1)CC3N(C)CC2)N(C)CC4 (centres undefined) [Berbamine] | 0.969 ± 0.28
12 | CCOC(=O)c1ccc(C#Cc2ccc3c(c2)C(C)(C)CCS3)nc1 [Tazarotene] | 2.58 ± 1.3
13 | Cc1oncc1C(=O)Nc1ccc(C(F)(F)F)cc1 [Leflunomide] | 0.937 ± 0.048
14 | Nc1cccc2c1C(=O)N(C1CCC(=O)NC1=O)C2=O (centres undefined) [Pomalidomide] | 1.575 ± 0.0085
15 | Cc1coc2c1C(=O)C(=O)c1c-2ccc2c(C)cccc12 [Tanshinone I] | 0.692 ± 0.18
16 | COc1cc2ncnc(Nc3ccc(F)c(Cl)c3)c2cc1OCCCN1CCOCC1 [Gefitinib (ZD1839)] | 1.09 ± 0.14
17 | COc1cccc2c1C(=O)c1c(O)c3c(c(O)c1C2=O)CC(O)(C(C)=O)CC3OC1CC(N)C(O)C(C)O1.Cl (centres undefined) [Daunorubicin HCl] | 0.423 ± 0.15
18 | O=C(Oc1ccccc1C(=O)O)c1ccccc1O [Sasapyrine] | 0.697 ± 0.28
19 | CCCCC(=O)OC1(C(=O)CO)C(C)CC2C3CCC4=CC(=O)C=CC4(C)C3(F)C(O)CC21C (centres undefined) [Betamethasone Valerate] | 0.8 ± 0.39
20 | CCc1ccc(Cc2ccc3c(c2)C2(OC3)OC(CO)C(O)C(O)C2O)cc1.O (centres undefined) [Tofogliflozin(CSG 452)] | 0.942 ± 0.091

Structures listed so far containing four or more nitrogen atoms:
Row | Compound | IL-6-GFP fluorescence
4 | Cl.N=C1CCCN1Cc1[nH]c(=O)[nH]c(=O)c1Cl.O=c1[nH]c(=O)n(C2CC(O)C(CO)O2)cc1C(F)(F)F.O=c1[nH]c(=O)n(C2CC(O)C(CO)O2)cc1C(F)(F)F (centres undefined) | 1.1 ± 0.17
16 | COc1cc2ncnc(Nc3ccc(F)c(Cl)c3)c2cc1OCCCN1CCOCC1 [Gefitinib (ZD1839)] | 1.09 ± 0.14

(more compounds)

Row | Compound | IL-6-GFP fluorescence
21 | CCC1(O)C(=O)OCc2c1cc1n(c2=O)Cc2cc3c(CN(C)C)c(O)ccc3nc2-1 (centres undefined) [Topotecan] | 1.43 ± 0.55
22 | COc1c(-c2ccc3cc(NS(C)(=O)=O)ccc3c2)cc(-n2ccc(=O)[nH]c2=O)cc1C(C)(C)C [Dasabuvir(ABT-333)] | 0.997 ± 0.1
23 | COc1cc(C2c3cc4c(cc3C(OC3OC5COC(C)OC5C(O)C3O)C3COC(=O)C23)OCO4)cc(OC)c1O (centres undefined) [Etoposide] | 1 ± 0.057
24 | CC(=O)OC(C)C(C)C(=O)OCC12C3CC4(C)C(=CCC5C6(C)CCC(OC7OC(C(=O)[O][Na])C(OC8OC(CO)C(O)C(O)C8O)C(O)C7OC7OCC(O)C(O)C7O)C(C)(CO)C6CCC54C)C1CC(C)(C)C(O3)C2O (centres undefined) [Sodium Aescinate] | 0.964 ± 0.27
25 | Cc1cccn2c(=O)c(-c3nnn[n-]3)cnc12.[K+] [Pemirolast potassium] | 0.896 ± 0.26
26 | Cn1c(=O)cc(N2CCCC(N)C2)n(Cc2cc(F)ccc2C#N)c1=O (centres undefined) [Trelagliptin] | 0.973 ± 0.099
27 | CC(=O)C1CCC2C3CC(C)C4=CC(=O)CCC4(C)C3C(O)CC12C (centres undefined) [Medrysone] | 0.75 ± 0.23
28 | O=S1(=O)CCN(CN2CCS(=O)(=O)NC2)CN1 [Taurolidine] | 0.607 ± 0.34
29 | COc1cc(CNC(=O)CCCC/C=C\C(C)C)ccc1O [Zucapsaicin] | 0.844 ± 0.066
30 | CN(C)N=Nc1[nH]cnc1C(N)=O [Dacarbazine] | 0.976 ± 0.33
31 | NC(=O)c1cccc2cn(-c3ccc(C4CCCNC4)cc3)nc12 (centres undefined) [Niraparib (MK-4827)] | 1 ± 0.092
32 | Cc1cncc(CN2CCC(=C3c4ccc(Cl)cc4CCc4cccnc43)CC2)c1.O=C(O)/C=C/C(=O)O [Rupatadine Fumarate] | 0.926 ± 0.085
33 | CC(C)Cc1ccc(C(C)C(=O)O)cc1.NCCCCC(N)C(=O)O (centres undefined) [Ibuprofen Lysine] | 0.723 ± 0.51
34 | CC(=O)OC12COC1CC(O)C1(C)C(=O)C(O)C3=C(C)C(OC(=O)C(O)C(NC(=O)OC(C)(C)C)c4ccccc4)CC(O)(C(OC(=O)c4ccccc4)C21)C3(C)C.O.O.O (centres undefined) [Docetaxel Trihydrate] | 1.15 ± 0.38
35 | CCCCC(CC)CN1CN(CC(CC)CCCC)CC(C)(N)C1 (centres undefined) [Hexetidine] | 0.857 ± 0.11
36 | Cc1ccc(C2OC(CO)C(O)C(O)C2O)cc1Cc1ccc(-c2ccc(F)cc2)s1.Cc1ccc(C2OC(CO)C(O)C(O)C2O)cc1Cc1ccc(-c2ccc(F)cc2)s1.O (centres undefined) [Canagliflozin hemihydrate] | 0.813 ± 0.14
37 | CC(O)CO.CCOc1ccc(Cc2cc(C3OC(CO)C(O)C(O)C3O)ccc2Cl)cc1.O (centres undefined) [Dapagliflozin propanediol monohydrate] | 0.901 ± 0.13
38 | COc1cc2nccc(Oc3ccc(NC(=O)NC4CC4)c(Cl)c3)c2cc1C(N)=O [Lenvatinib (E7080)] | 0.909 ± 0.039
39 | CNC1CCC(c2ccc(Cl)c(Cl)c2)c2ccccc21.Cl (centres undefined) [Sertraline HCl] | 0.766 ± 0.26
